Data as given in PMC11772975.
These are yes or no findings as the source states them, for the method shown. Binding seen in cells or lysates may run through a third protein. Some entries that bind do so weakly or less than the wild type.

Target: LgBiT-p65, Q04206
Assay: split reporter
Conditions: remark: other sources report otherwise

B1: SmBiT-IκBα, P25963 1-317 (protein)
chain: MFQAAERPQEWAMEGPRDGLKKERLLDDRHDSGLDSMKDEEYEQMVKELQEIRLEPQEVPRGSEPWKQQLTEDGDSFLHLAIIHEEKALTMEVIRQVKGDLAFLNFQNNLQQTPLHLAVITNQPEIAEALLGAGCDPELRDFRGNTPLHLACEQGCLASVGVLTQSCTTPHLHSILKATNYNGHTCLHLASIHGYLGIVELLVSLGADVNAQEPCNGRTALHLAVDLQNPDLVSLLLKCGADVNRVTYQGYSPYQLTWGRPSTRIQQQLGQLTLENLQMLPESEDEESYDTESEFTEFTEDELPYDDCVFGGQRLTL
  binding: binds
